One substance from publication PMC5007442 can be followed below.

The test has as its target T1, HA-CYLD (UniProt Q9NQC7).
T1 sequence: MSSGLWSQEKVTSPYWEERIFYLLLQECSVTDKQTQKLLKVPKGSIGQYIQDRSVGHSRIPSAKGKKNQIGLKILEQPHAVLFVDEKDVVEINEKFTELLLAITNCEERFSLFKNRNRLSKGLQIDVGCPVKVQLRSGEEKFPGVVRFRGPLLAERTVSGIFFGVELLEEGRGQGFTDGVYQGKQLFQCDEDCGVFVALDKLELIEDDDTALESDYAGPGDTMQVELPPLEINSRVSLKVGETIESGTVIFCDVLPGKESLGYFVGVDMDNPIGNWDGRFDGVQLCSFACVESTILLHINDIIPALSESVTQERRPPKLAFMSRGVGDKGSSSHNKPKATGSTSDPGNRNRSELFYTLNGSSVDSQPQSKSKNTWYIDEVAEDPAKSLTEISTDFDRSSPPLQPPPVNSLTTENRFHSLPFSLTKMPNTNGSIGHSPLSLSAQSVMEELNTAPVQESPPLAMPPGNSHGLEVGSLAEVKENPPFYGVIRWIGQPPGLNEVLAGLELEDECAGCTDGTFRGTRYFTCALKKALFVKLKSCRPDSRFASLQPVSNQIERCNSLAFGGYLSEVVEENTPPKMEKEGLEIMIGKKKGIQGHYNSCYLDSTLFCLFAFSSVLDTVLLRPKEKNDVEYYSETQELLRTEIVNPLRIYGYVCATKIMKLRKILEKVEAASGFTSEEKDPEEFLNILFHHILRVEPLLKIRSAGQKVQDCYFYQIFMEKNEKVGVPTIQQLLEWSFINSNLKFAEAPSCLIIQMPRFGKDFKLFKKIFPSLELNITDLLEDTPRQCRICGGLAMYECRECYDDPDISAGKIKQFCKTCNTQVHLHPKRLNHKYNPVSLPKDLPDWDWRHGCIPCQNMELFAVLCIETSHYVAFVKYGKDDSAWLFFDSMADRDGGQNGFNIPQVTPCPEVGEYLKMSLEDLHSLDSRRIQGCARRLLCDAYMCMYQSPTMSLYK
As to the kind of experiment: co-IP; HA-CYLD immunoprecipitated from CpT-treated HEK-293 T cells transfected with HA-CYLD and GFP-p53; blot with anti-GFP; interaction enhanced after DNA damage.

These are yes or no findings as the source states them, for the method shown. In cells and extracts the contact can be indirect. Some results given as binding are weak or reduced against the parent protein; the word gives no strength. Tags and fused reporters may be left off the sequences shown.

In the case of GFP-p53 (from UniProt P04637 1-393), the binding entry was “binds”.
